Test results published in paper PMC11948025.

By UniProt entry, the sequences of proteins in these tests, tags left out.
UniProt Q14258: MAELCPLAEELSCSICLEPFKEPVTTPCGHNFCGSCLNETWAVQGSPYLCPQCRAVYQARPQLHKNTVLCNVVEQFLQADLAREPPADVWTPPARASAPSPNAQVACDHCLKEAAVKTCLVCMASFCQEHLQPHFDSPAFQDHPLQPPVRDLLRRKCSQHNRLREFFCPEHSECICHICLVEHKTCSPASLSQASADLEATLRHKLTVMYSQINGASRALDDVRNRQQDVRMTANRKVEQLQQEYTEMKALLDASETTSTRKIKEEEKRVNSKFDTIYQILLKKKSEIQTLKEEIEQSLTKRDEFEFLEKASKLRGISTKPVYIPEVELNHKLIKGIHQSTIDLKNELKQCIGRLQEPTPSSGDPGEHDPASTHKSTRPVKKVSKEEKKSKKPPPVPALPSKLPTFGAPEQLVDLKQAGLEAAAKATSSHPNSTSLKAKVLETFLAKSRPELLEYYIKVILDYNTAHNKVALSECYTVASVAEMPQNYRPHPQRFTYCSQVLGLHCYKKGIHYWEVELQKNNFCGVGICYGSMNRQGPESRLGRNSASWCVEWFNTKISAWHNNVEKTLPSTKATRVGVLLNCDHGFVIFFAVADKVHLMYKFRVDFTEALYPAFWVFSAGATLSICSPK

Target: T1, NNMT-GFP, full length (human) (UniProt P40261)
T1 sequence: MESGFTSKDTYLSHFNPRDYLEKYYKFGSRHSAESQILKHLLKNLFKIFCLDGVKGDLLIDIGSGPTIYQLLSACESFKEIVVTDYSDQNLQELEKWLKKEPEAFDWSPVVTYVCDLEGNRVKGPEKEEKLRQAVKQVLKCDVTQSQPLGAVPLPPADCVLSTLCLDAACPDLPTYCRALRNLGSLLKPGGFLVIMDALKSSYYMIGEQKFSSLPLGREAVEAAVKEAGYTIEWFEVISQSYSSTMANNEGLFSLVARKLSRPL
Test: affinity purification with mass spectrometry; HEK293T cells overexpressing NNMT-GFP, IP lysis buffer, GFP antibody, SDS-PAGE bands digested, LC-MS/MS

binding: binds
Molecule: tripartite-motif protein 25 (TRIM25), endogenous (from UniProt Q14258 1-630) (enzyme)

binding: binds
B1: tripartite-motif protein 56 (TRIM56), endogenous (enzyme, UniProt Q9BRZ2 1-755)
chain: MVSHGSSPSLLEALSSDFLACKICLEQLRAPKTLPCLHTYCQDCLAQLADGGRVRCPECRETVPVPPEGVASFKTNFFVNGLLDLVKARACGDLRAGKPACALCPLVGGTSTGGPATARCLDCADDLCQACADGHRCTRQTHTHRVVDLVGYRAGWYDEEARERQAAQCPQHPGEALRFLCQPCSQLLCRECRLDPHLDHPCLPLAEAVRARRPGLEGLLAGVDNNLVELEAARRVEKEALARLREQAARVGTQVEEAAEGVLRALLAQKQEVLGQLRAHVEAAEEAARERLAELEGREQVARAAAAFARRVLSLGREAEILSLEGAIAQRLRQLQGCPWAPGPAPCLLPQLELHPGLLDKNCHLLRLSFEEQQPQKDGGKDGAGTQGGEESQSRREDEPKTERQGGVQPQAGDGAQTPKEEKAQTTREEGAQTLEEDRAQTPHEDGGPQPHRGGRPNKKKKFKGRLKSISREPSPALGPNLDGSGLLPRPIFYCSFPTRMPGDKRSPRITGLCPFGPREILVADEQNRALKRFSLNGDYKGTVPVPEGCSPCSVAALQSAVAFSASARLYLINPNGEVQWRRALSLSQASHAVAALPSGDRVAVSVAGHVEVYNMEGSLATRFIPGGKASRGLRALVFLTTSPQGHFVGSDWQQNSVVICDGLGQVVGEYKGPGLHGCQPGSVSVDKKGYIFLTLREVNKVVILDPKGSLLGDFLTAYHGLEKPRVTTMVDGRYLVVSLSNGTIHIFRVRSPDS

Results are given in words; binding and its absence hold for the method and conditions named. Binding seen in cells or lysates may run through a third protein. A yes stands for co-enrichment or nearness to the bait. Other partners may have been found. Where a sequence is shown, tags or fusion partners need not be part of it. One block for each molecule: values may come before it.
